Measurements published in patent publication US8481497B2, “Therapeutic agent for cancer, and method for treatment of cancer” (Sapporo Medical University, priority 2007, dated 2013).
At least one structure is not confirmed: it was looked up by name or label, or the drawing left a doubt.

System: FGFR1 in KMS12BM cells
Assay: FGFR1 expression at mRNA level in multiple myeloma cell line by DNA array
Format: cell-based
Settings: 1 micro M decitabine (72 hours) and/or 0.5 micro g/mL ADR (24 hours)
Description: Using a DNA array, 1 micro M decitabine and/or 0.5 micro g/mL ADR was administered to KMS12BM cells and a change in expression of FGFR1 at the mRNA level was examined 72 hours after administration of decitabine and 24 hours after administration of ADR. In the graph, the expression level ratio relative to the expression level in the cell line to which no drug was administered is shown on the vertical axis. In the graph, the decitabine administration group is shown by Aza.

SMILES: Nc1ncn([C@H]2C[C@H](O)[C@@H](CO)O2)c(=O)n1 [decitabine]
- expression level of FGFR1 at the mRNA level: increased
